The target in the assay is recombinant 6His tagged SIRT5 (human sirtuin-5) (human) (UniProt Q9NXA8). As to the kind of experiment: affinity purification with mass spectrometry; 5 ug recombinant 6His-SIRT5 added to pre-cleared SIRT5KO mouse liver lysate in RIPA buffer, 37 C for 30 min; polyHis-antibody agarose overnight at 4 C; 4 washes with RIPA; SDS-PAGE bands excised and identified by mass spectrometry; only the target purified.

By UniProt entry, the sequences of proteins in these tests, tags left out. Residues count along the entry.
UniProt Q9NXA8, residues 37-310: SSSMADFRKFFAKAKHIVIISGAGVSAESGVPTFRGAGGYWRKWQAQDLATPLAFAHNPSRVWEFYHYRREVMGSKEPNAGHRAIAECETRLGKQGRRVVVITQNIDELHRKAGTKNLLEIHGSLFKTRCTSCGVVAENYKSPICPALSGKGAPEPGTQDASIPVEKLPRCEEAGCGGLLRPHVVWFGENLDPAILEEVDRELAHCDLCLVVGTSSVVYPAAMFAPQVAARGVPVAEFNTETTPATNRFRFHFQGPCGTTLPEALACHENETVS

No constants are given. Whether binding was seen depends on the method and setting. Binding seen in cells or lysates may run through a third protein. These calls come from enrichment with a bait or labelling near it, and not all partners need be listed.

B1: Acyl-coenzyme A thioesterase 4 (ACOT4) (enzyme, UniProt Q8BWN8 1-421)
chain: MAATLSVEPTGRSCWDEPLSIAVRGLAPEQPVTLRSVLRDEKGALFRAHARYRADSHGELDLARVPALGGSFSGLEPMGLLWAMEPDRPFWRLIKRDVQTPFLVELEVLDGHEPDGGRRLARTVHERHFMAPGVRRVPVREGRVRATLFLPPGQGPFPGIIDVYGVGGGLLEYRAGLVAGHGFATLALAFYDFEDLPKELNVIEVDYFEEAVRYMLRHPKVKGPDIGLLGLSLGADVCLIMASFLNNVSATVSINGSAFSGNRHIKYKQTMIPPLGHDLRRMKVAFSGILDIVDIRNDAVGGCENPSMIPIEKAKGPILFVAGQDDHCWRSELYTQIASDRLQAHGKERPQVLSYPGTGHYIEPPYFPMCPASLHKIVNEAVIWGGEVKAHSKAQIDAWKQILFFFGKHLGSTHSRASCRL
In the case of B1, the binding result is recorded as “binds”.

B2: ATP-binding cassette sub-family D member 3 (ABCD3) (protein, UniProt P55096 1-659)
chain: MAAFSKYLTARNTSLAGAAFLLLCLLHKRRRALGLHGKKSGKPPLQNNEKEGKKERAVVDKVFLSRLSQILKIMVPRTFCKETGYLLLIAVMLVSRTYCDVWMIQNGTLIESGIIGRSSKDFKRYLFNFIAAMPLISLVNNFLKYGLNELKLCFRVRLTRYLYEEYLQAFTYYKMGNLDNRIANPDQLLTQDVEKFCNSVVDLYSNLSKPFLDIVLYIFKLTSAIGAQGPASMMAYLLVSGLFLTRLRRPIGKMTIMEQKYEGEYRYVNSRLITNSEEIAFYNGNKREKQTIHSVFRKLVEHLHNFIFFRFSMGFIDSIIAKYVATVVGYLVVSRPFLDLAHPRHLHSTHSELLEDYYQSGRMLLRMSQALGRIVLAGREMTRLAGFTARITELMQVLKDLNHGRYERTMVSQQEKGIEGAQASPLVPGAGEIINTDNIIKFDHVPLATPNGDILIQDLSFEVRSGANVLICGPNGCGKSSLFRVLGELWPLFGGRLTKPERGKLFYVPQRPYMTLGTLRDQVIYPDGKEDQKKRGISDQVLKEYLDNVQLGHILEREGGWDSVQDWMDVLSGGEKQRMAMARLFYHKPQFAILDECTSAVSVDVEDYIYSHCRKVGITLFTVSHRKSLWKHHEYYLHMDGRGNYEFKKITEDTVEFGS
For the molecule B2, the binding entry was “binds”.

Source of the values: article PMC11673421.
